Assay results taken from paper PMC6588345.
These are yes or no findings as the source states them, for the method shown. Some entries that bind do so weakly or less than the wild type.

Amino acid sequences for entries named in this document (tags omitted). A change or cut given only in a name is not applied to a line headed by its entry. Residues count along the entry.
UniProt Q61089: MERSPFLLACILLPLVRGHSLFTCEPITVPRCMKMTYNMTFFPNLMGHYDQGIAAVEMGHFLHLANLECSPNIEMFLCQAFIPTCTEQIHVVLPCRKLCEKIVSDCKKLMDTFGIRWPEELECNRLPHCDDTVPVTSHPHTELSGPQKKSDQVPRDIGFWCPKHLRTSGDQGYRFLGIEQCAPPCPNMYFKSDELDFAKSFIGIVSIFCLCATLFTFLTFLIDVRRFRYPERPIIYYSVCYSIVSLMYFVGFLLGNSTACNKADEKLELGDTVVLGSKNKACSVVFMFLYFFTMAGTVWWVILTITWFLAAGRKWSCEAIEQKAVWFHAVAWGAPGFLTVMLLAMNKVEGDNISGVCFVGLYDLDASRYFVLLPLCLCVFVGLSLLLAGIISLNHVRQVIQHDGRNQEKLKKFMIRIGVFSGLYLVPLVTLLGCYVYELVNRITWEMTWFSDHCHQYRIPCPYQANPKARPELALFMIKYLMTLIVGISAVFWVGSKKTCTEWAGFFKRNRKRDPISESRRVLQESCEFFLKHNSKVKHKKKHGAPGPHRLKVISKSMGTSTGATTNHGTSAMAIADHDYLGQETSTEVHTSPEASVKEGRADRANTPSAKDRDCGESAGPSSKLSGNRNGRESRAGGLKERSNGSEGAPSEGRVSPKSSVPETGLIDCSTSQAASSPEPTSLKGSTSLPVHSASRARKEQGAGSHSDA
UniProt P48744, residues 25-131: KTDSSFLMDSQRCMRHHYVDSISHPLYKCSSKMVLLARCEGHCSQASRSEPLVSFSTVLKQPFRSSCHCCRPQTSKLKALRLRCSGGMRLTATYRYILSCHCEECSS

Key:
[1] = molecular target: T1, Fz4 on HEK293T cells (mouse) (UniProt Q61088); assay: alkaline phosphatase (AP) fusion protein binding to live cells; serum-containing conditioned medium with the AP fusion protein on live transfected HEK293T cells, 4°C, 2 hr; washed, fixed with 4% PFA, endogenous AP heat denatured at 70°C, bound AP visualized with NBT/BCIP
T1 sequence: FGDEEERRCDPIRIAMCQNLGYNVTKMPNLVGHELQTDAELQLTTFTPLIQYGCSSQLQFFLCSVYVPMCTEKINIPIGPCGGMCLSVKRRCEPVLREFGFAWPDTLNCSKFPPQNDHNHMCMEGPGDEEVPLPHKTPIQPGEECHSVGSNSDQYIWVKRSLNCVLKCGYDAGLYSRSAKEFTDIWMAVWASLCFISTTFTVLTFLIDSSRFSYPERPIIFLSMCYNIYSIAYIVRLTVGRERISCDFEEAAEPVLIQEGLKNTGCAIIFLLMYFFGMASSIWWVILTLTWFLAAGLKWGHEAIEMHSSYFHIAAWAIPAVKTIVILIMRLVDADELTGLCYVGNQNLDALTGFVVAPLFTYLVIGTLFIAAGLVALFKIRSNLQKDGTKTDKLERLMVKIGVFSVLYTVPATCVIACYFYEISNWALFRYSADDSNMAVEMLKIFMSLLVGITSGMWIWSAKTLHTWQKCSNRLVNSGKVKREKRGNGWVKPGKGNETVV

[2] = molecular target: T2, Fz4CRD-Fz6 on HEK293T cells (mouse) (UniProt Q61088+Q61089); assay: as above
T2 sequence: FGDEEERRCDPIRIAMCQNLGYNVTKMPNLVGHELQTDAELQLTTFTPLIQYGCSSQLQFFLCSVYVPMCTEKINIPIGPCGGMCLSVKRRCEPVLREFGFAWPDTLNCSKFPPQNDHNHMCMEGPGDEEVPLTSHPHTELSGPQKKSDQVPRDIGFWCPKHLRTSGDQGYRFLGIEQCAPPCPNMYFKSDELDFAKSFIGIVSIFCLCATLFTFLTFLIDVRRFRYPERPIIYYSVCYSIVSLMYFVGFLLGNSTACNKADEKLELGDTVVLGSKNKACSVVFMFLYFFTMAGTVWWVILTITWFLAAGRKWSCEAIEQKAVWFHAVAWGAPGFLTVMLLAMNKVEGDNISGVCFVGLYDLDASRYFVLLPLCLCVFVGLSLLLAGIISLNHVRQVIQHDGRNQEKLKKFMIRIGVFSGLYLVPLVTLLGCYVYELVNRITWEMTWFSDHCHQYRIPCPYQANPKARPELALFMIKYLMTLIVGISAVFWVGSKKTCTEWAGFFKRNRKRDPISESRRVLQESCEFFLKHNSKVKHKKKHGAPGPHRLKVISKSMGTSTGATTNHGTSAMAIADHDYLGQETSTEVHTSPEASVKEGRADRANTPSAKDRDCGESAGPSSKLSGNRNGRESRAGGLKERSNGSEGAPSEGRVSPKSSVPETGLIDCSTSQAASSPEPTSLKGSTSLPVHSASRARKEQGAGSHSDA

Substance: AP-3xMyc-Norrin (from UniProt P48744 25-131) (ligand)
- binding [1]: binds
- binding [2]: binds
